Laboratory results published in PMC5709413.
The exact form of at least one protein or probe is not confirmed. Negatives hold for the conditions tested.

Test system: GST-BEX1
Assay: EMSA
Conditions: recombinant BEX1-GST, stated not to act as site-specific RNA-binding factor to the ARE; 10 mM Tris-HCl, 50 mM KCl, 2.5 mM DTT, 0.25% Tween 20, pH 7.5, RNase inhibitor; 1 pmol probe; room temperature, 30 min; 5% native TBE gel; recombinant protein; protein details: GST; label: 5' Cy5

“GCACUUAUUAUUUAUUAUUUAUUUAUUAUUUAUUUAUUUGCUUAUGAAUGUAUUUAUUUG [ARE-TNF-cy5]”: no binding.
